Results deposited as PubChem BioAssay AID686937 (Drosophila RNAi Screening Center, 2013)
In all, the deposit lists about 23,000 reagents; shown is an unselected part of those that have a named target and a result. 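Reduced-secretion tags in replicate 1 do not always agree with the z-scores; no criterion for assigning the tags was given.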 Reagents against one gene are numbered here. Names joined by + are all predicted targets of the reagent. Further read-outs or replicates are left out here. Not given: the amount of reagent.

Test: 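Knock-downs that reduce output of a secreted reporter enzyme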 (primary screen)
System: Drosophila S2 cells expressing secreted horseradish peroxidase
Reagent: long dsRNA against Drosophila genes
Duration: about 5.5 days (5 days dsRNA, then 12 h reporter induction)
Conditions: reporter expression induced after 5 days of dsRNA, read 12 h later; inducer not stated
Measurement: 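Chemiluminescent measurement of peroxidase in the medium 12 h after reporter induction, following 5 days of dsRNA, given as a z-score per plate; higher means more secretion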
Reading the numbers: z-score: higher = more reporter secreted into medium

no.	target gene	dsRNA no.	z-score, replicate 1
1	CG8319	1	0.22
2	CG4984 + CG4975	1	0.24
3	CG4984 + CG4975	2	0.43
4	pwn (pawn)	1	-0.3
5	PIG-O (Phosphatidylinositol glycan anchor biosynthesis class O)	1	0.25
6	VAChT (Vesicular acetylcholine transporter)	1	0.24
7	VAChT (Vesicular acetylcholine transporter)	2	0.12
8	CG10646	1	0.62
9	CG15247	1	0.25
10	frj (farjavit)	1	0.24
11	dco (discs overgrown)	1	-0.08
12	sens-2 (senseless-2)	1	0.23
13	sens-2 (senseless-2)	2	0.1
14	sens-2 (senseless-2)	3	-0.8
15	bdwf (bedwarfed)	1	0.41
16	CG15638	1	0.56
17	tomboy20	1	0.36
18	CG1896	1	0.3
19	mlt (retired record)	1	0.29
20	CG9231	1	0.37
21	Miox (Myo-inositol oxygenase)	1	0.47
22	CG32085	1	0.3
23	CG32085	2	0.19
24	CG32085	3	0.47
25	CG9018	1	0.51
26	CG12420	1	0.53
27	CG17625	1	0.37
28	RpS5a (Ribosomal protein S5a)	1	-1.66
29	CG4820	1	0.36
30	CG34457	1	-0.26
31	Tim17a1	1	0.26
32	CG8229 + CG33199	1	-0.35
33	tun (tungus)	1	0.22
34	tun (tungus)	2	0.26
35	Tmhs (Tetraspan membrane protein in hair cell stereocilia)	1	-0.58
36	CG5860	1	0.62
37	CG17104	1	0.28
38	jp (junctophilin)	1	0.25
39	jp (junctophilin)	2	0.25
40	CG43345 + CG43346	1	0.13
41	CG4017	1	0.53
42	Rab4 + CG42239	1	-0.35
43	Gs1 (Glutamine synthetase 1)	1	0.26
44	CG17652	1	0.23
45	CG11200	1	0.18
46	SmydA-2 (SET and MYND domain containing, arthropod-specific, member 2)	1	0.48
47	CG13458	1	0.25
48	dpp (decapentaplegic)	1	0.76
49	dpp (decapentaplegic)	2	0.22
50	dpp (decapentaplegic)	3	0.15
51	CG6345	1	0.33
52	CG33966	1	0.58
53	Fim (Fimbrin)	1	0.26
54	CG15098	1	-0.59
55	Irp-1A (Iron regulatory protein 1A)	1	0.19
56	ihog (interference hedgehog)	1	0.35
57	Tim17a2	1	0.54
58	SmydA-8 (SET and MYND domain containing, arthropod-specific, member 8)	1	0.57
59	SmydA-8 (SET and MYND domain containing, arthropod-specific, member 8)	2	0.3
60	SmydA-8 (SET and MYND domain containing, arthropod-specific, member 8)	3	-0.86
61	Pi3K92E (Phosphatidylinositol 3-kinase 92E)	1	0.32
62	CG14419	1	0.17
63	CG17597	1	0.13
64	Cdc5 (Cell division cycle 5)	1	0.16
65	CG5326	1	0.35
66	CG5326	2	0.12
67	CG2061	1	0.36
68	CG18131	1	-0.28
69	Cpr67Fa1 (Cuticular protein 67Fa1)	1	0.53
70	CG32037	1	0.46
71	beta4GalNAcTA (beta1,4-N-acetylgalactosaminyltransferase A)	1	0.66
72	Dus2 (Dihydrouridine synthase 2)	1	0.19
73	Nepl17 (Neprilysin-like 17)	1	-0.06
74	ppk28 (pickpocket 28)	1	-0.83
75	wrapper	1	0.31
76	ss (spineless)	1	0.6
77	grh (grainy head)	1	0.43
78	grh (grainy head)	2	-1.55
79	grh (grainy head)	3	0.16
80	grh (grainy head)	4	-0.05
81	CG14989	1	0.49
82	CG10470	1	-0.02

11 entries already listed, sorted by “z-score, replicate 1”, low to high.
target gene	dsRNA no.	z-score, replicate 1
SmydA-8 (SET and MYND domain containing, arthropod-specific, member 8)	3	-0.86
CG15098	1	-0.59
Irp-1A (Iron regulatory protein 1A)	1	0.19
Fim (Fimbrin)	1	0.26
SmydA-8 (SET and MYND domain containing, arthropod-specific, member 8)	2	0.3
Pi3K92E (Phosphatidylinositol 3-kinase 92E)	1	0.32
CG6345	1	0.33
ihog (interference hedgehog)	1	0.35
Tim17a2	1	0.54
SmydA-8 (SET and MYND domain containing, arthropod-specific, member 8)	1	0.57
CG33966	1	0.58
